Data as given in PubChem BioAssay AID1259308 (NCATS, 2017).
In all, the deposit lists about 59,000 reagents; shown is a part drawn at random. About 1,510 of all reagents (2.6%) count as active. 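Calls use total luciferase alone and ignore viability, so some active siRNAs may act by altering cell number.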 The numbers tell different reagents against one gene apart.

Assay: 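Genes whose loss raises luciferase production in HEK293 cells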 (primary screen)
System: human HEK293 embryonic kidney cells stably expressing firefly luciferase (HEK-CMV-Luc2-Hygro)
Reagents: single siRNA against human genes, 0.8 pmol siRNA per well
Time to read-out: 72 h
Measurement: 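Reporter luminescence and viable-cell signal on separate replicate plates, given as percent of non-targeting control and median/MAD z-scores, plus per-cell luciferase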
Direction: total luciferase, z-score and total luciferase, % of control: higher = more reporter protein produced; luciferase per cell, z-score: higher = more reporter output per viable cell; viable cells, % of control: higher = more viable cells
Call rule: 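An siRNA counts as active if its total luciferase robust z-score exceeds 3; genes with two or more such siRNAs out of three were retested with fresh siRNAs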
Meaning of the calls: active = raised luciferase; inactive = no rise

gene symbol	siRNA no.	total luciferase, z-score	total luciferase, % of control	luciferase per cell, z-score	viable cells, % of control	Outcome
SH3RF2 (GeneID 153769)	1	0.211	86.1	-0.453	108	inactive
SH3RF2 (GeneID 153769)	2	1.4	110	0.717	102	inactive
SH3RF2 (GeneID 153769)	3	-1.13	59.3	-1.16	90	inactive
ATP6V1B2 (GeneID 526)	1	0.627	94.4	0.365	95.8	inactive
ATP6V1B2 (GeneID 526)	2	0.501	91.9	-0.281	111	inactive
ATP6V1B2 (GeneID 526)	3	0.146	84.8	-0.244	101	inactive
ASS1 (GeneID 445)	1	1.52	112	0.932	98.1	inactive
ASS1 (GeneID 445)	2	-1.22	57.6	-0.973	83.2	inactive
ASS1 (GeneID 445)	3	0.865	99.1	0.874	88	inactive
GOT1L1 (GeneID 137362)	1	-0.436	73.2	0.241	76.8	inactive
GOT1L1 (GeneID 137362)	2	1.42	110	1.03	93.7	inactive
GOT1L1 (GeneID 137362)	3	-1.33	55.5	-0.72	75	inactive
FAM161B (GeneID 145483)	1	0.287	87.6	0.464	86.6	inactive
FAM161B (GeneID 145483)	2	-0.103	79.8	-0.376	98.5	inactive
FAM161B (GeneID 145483)	3	-0.644	69.1	-1.3	109	inactive
SNX30 (GeneID 401548)	1	-2.04	41.3	-1.2	63.4	inactive
SNX30 (GeneID 401548)	2	-0.884	64.3	0.121	69.6	inactive
SNX30 (GeneID 401548)	3	-0.281	76.3	-0.856	107	inactive
PRIMPOL (GeneID 201973)	1	0.559	93	0.219	98.1	inactive
PRIMPOL (GeneID 201973)	2	-0.152	78.9	-0.711	106	inactive
PRIMPOL (GeneID 201973)	3	-0.771	66.5	-1.05	97.9	inactive
EFCAB12 (GeneID 90288)	1	0.168	85.2	0.773	77.7	inactive
EFCAB12 (GeneID 90288)	2	1.44	110	1.04	93.9	inactive
EFCAB12 (GeneID 90288)	3	-2.32	35.7	-2.11	69.5	inactive
LRRC52 (GeneID 440699)	1	-0.533	71.3	-1.09	106	inactive
LRRC52 (GeneID 440699)	2	0.723	96.3	1	82.7	inactive
LRRC52 (GeneID 440699)	3	-1.15	59.1	-0.262	70.7	inactive
P2RY4 (GeneID 5030)	1	-0.601	69.9	0.404	70.3	inactive
P2RY4 (GeneID 5030)	2	0.593	93.7	0.299	96.8	inactive
P2RY4 (GeneID 5030)	3	-0.749	67	-0.914	95.2	inactive
ZBTB42 (GeneID 100128927)	1	-0.986	62.3	-1.23	96.1	inactive
ZBTB42 (GeneID 100128927)	2	1.06	103	0.94	89.9	inactive
ZBTB42 (GeneID 100128927)	3	-1.06	60.7	-1.63	104	inactive
ZNF600 (GeneID 162966)	1	-0.00539	81.8	-0.0346	92.2	inactive
ZNF600 (GeneID 162966)	2	1.46	111	1.78	77.6	inactive
ZNF600 (GeneID 162966)	3	-1.01	61.8	-0.601	80.9	inactive
IFT122 (GeneID 55764)	1	0.917	100	1.02	85.6	inactive
IFT122 (GeneID 55764)	2	0.546	92.7	0.236	97.4	inactive
IFT122 (GeneID 55764)	3	2.63	134	1.45	102	inactive
